The values that follow come from US12110503B2, “Method for differentiation of ocular cells and use thereof” (FUJIFILM Cellular Dynamics, Inc., priority 2018, dated 2024).

One data set has as its system PRP cell population. Put plainly: Flow analysis of depletion marker candidates against recoverin. In kind it is cell-based, human. As to conditions: depletion markers; for % antigen only: other cell types labeled.
Another data set has as its system D75 PRP product. The format is cell-based, human. As to conditions: for % co-expression with RCVRN: dual staining; for % (antigen+/recoverin−): off-target expression.

As to “CD49f: Integrin alpha 6; depletion marker”, in the data set on PRP cell population, the “% co-expression with RCVRN” value was 11% and the “% antigen only” value is given as 41.2%.

Turning to “CD56 (NCAM): Neuron cell surface adhesion molecule; surface protein evaluated for PRP enrichment”, in the data set with D75 PRP product, the “% co-expression with RCVRN” value came to 37.5% and the “% (antigen+/recoverin−)” value came to 61.4%.

Take “PSA-NCAM: surface protein; protects against light-induced retinal degeneration”: in the data set with D75 PRP product, the “% co-expression with RCVRN” value is reported as 36.1% and the “% (antigen+/recoverin−)” value stood at 61%.

For the molecule “CD184 (CKCR4): Chemokine receptor that facilitates cellular chemotactic activity”, in the data set on D75 PRP product, the “% co-expression with RCVRN” value is listed as 32.9% and the “% (antigen+/recoverin−)” value stood at 51.3%.

With “CD298: Sodium/potassium-transporting ATPase subunit beta-3”, in the data set with D75 PRP product, the “% co-expression with RCVRN” value is given as 36.7% and the “% (antigen+/recoverin−)” value is reported as 60.5%.

For the molecule “CD81: Tetraspanis protein; surface protein evaluated for PRP enrichment”, in the data set on D75 PRP product, the “% co-expression with RCVRN” value was 36.7% and the “% (antigen+/recoverin−)” value was 50.3%.

As to “CD340: Cell surface receptor tyrosine protein kinase ErbB2; depletion marker”, in the data set with PRP cell population, the “% co-expression with RCVRN” value was 3.6% and the “% antigen only” value is listed as 31.5%.

B1: CD200: surface protein; cellular maintenance and retinal homeostasis (protein, UniProt P41217 31-278, looked up)
OX-2 membrane glycoprotein: QVQVVTQDEREQLYTPASLKCSLQNAQEALIVTWQKKKAVSPENMVTFSENHGVVIQPAYKDKINITQLGLQNSTITFWNITLEDEGCYMCLFNTFGFGKISGTACLTVYVQPIVSLHYKFSEDHLNITCSATARPAPMVFWKVPRSGIENSTVTLSHPNGTTSVTSILHIKDPKNQVGKEVICQVLHLGTVTDFKQTVNKGYWFSVPLLLSIVSLVILLVLISILLYWKRHRNQDRGELSQGVQKMT
With B1, in the data set on D75 PRP product, the “% co-expression with RCVRN” value turned out to be 35.9% and the “% (antigen+/recoverin−)” value amounted to 63.2%.

B2: CD276: surface protein; cellular activation (protein, UniProt Q5ZPR3 29-534, looked up)
CD276 antigen: LEVQVPEDPVVALVGTDATLCCSFSPEPGFSLAQLNLIWQLTDTKQLVHSFAEGQDQGSAYANRTALFPDLLAQGNASLRLQRVRVADEGSFTCFVSIRDFGSAAVSLQVAAPYSKPSMTLEPNKDLRPGDTVTITCSSYQGYPEAEVFWQDGQGVPLTGNVTTSQMANEQGLFDVHSILRVVLGANGTYSCLVRNPVLQQDAHSSVTITPQRSPTGAVEVQVPEDPVVALVGTDATLRCSFSPEPGFSLAQLNLIWQLTDTKQLVHSFTEGRDQGSAYANRTALFPDLLAQGNASLRLQRVRVADEGSFTCFVSIRDFGSAAVSLQVAAPYSKPSMTLEPNKDLRPGDTVTITCSSYRGYPEAEVFWQDGQGVPLTGNVTTSQMANEQGLFDVHSVLRVVLGANGTYSCLVRNPVLQQDAHGSVTITGQPMTFPPEALWVTVGLSVCLIALLVALAFVCWRKIKQSCEEENAGAEDQDGEGEGSKTALQPLKHSDSKEDDGQEIA
As for B2, in the data set on D75 PRP product, the “% co-expression with RCVRN” value was found to be 39.7% and the “% (antigen+/recoverin−)” value stood at 58.7%.

B3: CD344 (Frizzled): surface protein; bipolar cell development, RPE development (protein, UniProt Q9ULV1 37-537, looked up)
Frizzled-4: FGDEEERRCDPIRISMCQNLGYNVTKMPNLVGHELQTDAELQLTTFTPLIQYGCSSQLQFFLCSVYVPMCTEKINIPIGPCGGMCLSVKRRCEPVLKEFGFAWPESLNCSKFPPQNDHNHMCMEGPGDEEVPLPHKTPIQPGEECHSVGTNSDQYIWVKRSLNCVLKCGYDAGLYSRSAKEFTDIWMAVWASLCFISTAFTVLTFLIDSSRFSYPERPIIFLSMCYNIYSIAYIVRLTVGRERISCDFEEAAEPVLIQEGLKNTGCAIIFLLMYFFGMASSIWWVILTLTWFLAAGLKWGHEAIEMHSSYFHIAAWAIPAVKTIVILIMRLVDADELTGLCYVGNQNLDALTGFVVAPLFTYLVIGTLFIAAGLVALFKIRSNLQKDGTKTDKLERLMVKIGVFSVLYTVPATCVIACYFYEISNWALFRYSADDSNMAVEMLKIFMSLLVGITSGMWIWSAKTLHTWQKCSNRLVNSGKVKREKRGNGWVKPGKGSETVV
On to B3, for which, in the data set with D75 PRP product, the “% co-expression with RCVRN” value came out at 33.3% and the “% (antigen+/recoverin−)” value came out at 14.1%.

B4: PTK7: surface protein; cellular adhesion, signal transduction, RPC (protein, UniProt Q13308 31-1070, looked up)
Inactive tyrosine-protein …: AIVFIKQPSSQDALQGRRALLRCEVEAPGPVHVYWLLDGAPVQDTERRFAQGSSLSFAAVDRLQDSGTFQCVARDDVTGEEARSANASFNIKWIEAGPVVLKHPASEAEIQPQTQVTLRCHIDGHPRPTYQWFRDGTPLSDGQSNHTVSSKERNLTLRPAGPEHSGLYSCCAHSAFGQACSSQNFTLSIADESFARVVLAPQDVVVARYEEAMFHCQFSAQPPPSLQWLFEDETPITNRSRPPHLRRATVFANGSLLLTQVRPRNAGIYRCIGQGQRGPPIILEATLHLAEIEDMPLFEPRVFTAGSEERVTCLPPKGLPEPSVWWEHAGVRLPTHGRVYQKGHELVLANIAESDAGVYTCHAANLAGQRRQDVNITVATVPSWLKKPQDSQLEEGKPGYLDCLTQATPKPTVVWYRNQMLISEDSRFEVFKNGTLRINSVEVYDGTWYRCMSSTPAGSIEAQARVQVLEKLKFTPPPQPQQCMEFDKEATVPCSATGREKPTIKWERADGSSLPEWVTDNAGTLHFARVTRDDAGNYTCIASNGPQGQIRAHVQLTVAVFITFKVEPERTTVYQGHTALLQCEAQGDPKPLIQWKGKDRILDPTKLGPRMHIFQNGSLVIHDVAPEDSGRYTCIAGNSCNIKHTEAPLYVVDKPVPEESEGPGSPPPYKMIQTIGLSVGAAVAYIIAVLGLMFYCKKRCKAKRLQKQPEGEEPEMECLNGGPLQNGQPSAEIQEEVALTSLGSGPAATNKRHSTSDKMHFPRSSLQPITTLGKSEFGEVFLAKAQGLEEGVAETLVLVKSLQSKDEQQQLDFRRELEMFGKLNHANVVRLLGLCREAEPHYMVLEYVDLGDLKQFLRISKSKDEKLKSQPLSTKQKVALCTQVALGMEHLSNNRFVHKDLAARNCLVSAQRQVKVSALGLSKDVYNSEYYHFRQAWVPLRWMSPEAILEGDFSTKSDVWAFGVLMWEVFTHGEMPHGGQADDEVLADLQAGKARLPQPEGCPSKLYRLMQRCWALSPKDRPSFSEIASALGDSTVDSKP
For B4, in the data set with D75 PRP product, the “% co-expression with RCVRN” value is on record as 13.6% and the “% (antigen+/recoverin−)” value was determined as 35.2%.

B5: CD147: surface protein, functions in adhesion (protein, UniProt P35613 22-385, looked up)
Basigin: AAGFVQAPLSQQRWVGGSVELHCEAVGSPVPEIQWWFEGQGPNDTCSQLWDGARLDRVHIHATYHQHAASTISIDTLVEEDTGTYECRASNDPDRNHLTRAPRVKWVRAQAVVLVLEPGTVFTTVEDLGSKILLTCSLNDSATEVTGHRWLKGGVVLKEDALPGQKTEFKVDSDDQWGEYSCVFLPEPMGTANIQLHGPPRVKAVKSSEHINEGETAMLVCKSESVPPVTDWAWYKITDSEDKALMNGSESRFFVSSSQGRSELHIENLNMEADPGQYRCNGTSSKGSDQAIITLRVRSHLAALWPFLGIVAEVLVLVTIIFIYEKRRKPEDVLDDDDAGSAPLKSSGQHQNDKGKNVRQRNSS
B5: in the data set with D75 PRP product, the “% co-expression with RCVRN” value stood at 38.1% and the “% (antigen+/recoverin−)” value came out at 43.5%.

B6: CD133 (clone AC133): surface protein evaluated for PRP enrichment; retinal development (protein, UniProt O43490 20-865, looked up)
Prominin-1: GGQPSSTDAPKAWNYELPATNYETQDSHKAGPIGILFELVHIFLYVVQPRDFPEDTLRKFLQKAYESKIDYDKPETVILGLKIVYYEAGIILCCVLGLLFIILMPLVGYFFCMCRCCNKCGGEMHQRQKENGPFLRKCFAISLLVICIIISIGIFYGFVANHQVRTRIKRSRKLADSNFKDLRTLLNETPEQIKYILAQYNTTKDKAFTDLNSINSVLGGGILDRLRPNIIPVLDEIKSMATAIKETKEALENMNSTLKSLHQQSTQLSSSLTSVKTSLRSSLNDPLCLVHPSSETCNSIRLSLSQLNSNPELRQLPPVDAELDNVNNVLRTDLDGLVQQGYQSLNDIPDRVQRQTTTVVAGIKRVLNSIGSDIDNVTQRLPIQDILSAFSVYVNNTESYIHRNLPTLEEYDSYWWLGGLVICSLLTLIVIFYYLGLLCGVCGYDRHATPTTRGCVSNTGGVFLMVGVGLSFLFCWILMIIVVLTFVFGANVEKLICEPYTSKELFRVLDTPYLLNEDWEYYLSGKLFNKSKMKLTFEQVYSDCKKNRGTYGTLHLQNSFNISEHLNINEHTGSISSELESLKVNLNIFLLGAAGRKNLQDFAACGIDRMNYDSYLAQTGKSPAGVNLLSFAYDLEAKANSLPPGNLRNSLKRDAQTIKTIHQQRVLPIEQSLSTLYQSVKILQRTGNGLLERVTRILASLDFAQNFITNNTSSVIIEETKKYGRTIIGYFEHYLQWIEFSISEKVASCKPVATALDTAVDVFLCSYIIDPLNLFWFGIGKATVFLLPALIFAVKLAKYYRRMDSEDVYDDVETIPMKNMENGNNGYHKDHVYGIHNPVMTSPSQH
On to B6, for which, in the data set on D75 PRP product, the “% co-expression with RCVRN” value is recorded as 9.1% and the “% (antigen+/recoverin−)” value is on record as 1.5%.

B7: CD133 (clone 293C3): surface protein evaluated for PRP enrichment; retinal development (protein, UniProt O43490 20-865, looked up)
Prominin-1: GGQPSSTDAPKAWNYELPATNYETQDSHKAGPIGILFELVHIFLYVVQPRDFPEDTLRKFLQKAYESKIDYDKPETVILGLKIVYYEAGIILCCVLGLLFIILMPLVGYFFCMCRCCNKCGGEMHQRQKENGPFLRKCFAISLLVICIIISIGIFYGFVANHQVRTRIKRSRKLADSNFKDLRTLLNETPEQIKYILAQYNTTKDKAFTDLNSINSVLGGGILDRLRPNIIPVLDEIKSMATAIKETKEALENMNSTLKSLHQQSTQLSSSLTSVKTSLRSSLNDPLCLVHPSSETCNSIRLSLSQLNSNPELRQLPPVDAELDNVNNVLRTDLDGLVQQGYQSLNDIPDRVQRQTTTVVAGIKRVLNSIGSDIDNVTQRLPIQDILSAFSVYVNNTESYIHRNLPTLEEYDSYWWLGGLVICSLLTLIVIFYYLGLLCGVCGYDRHATPTTRGCVSNTGGVFLMVGVGLSFLFCWILMIIVVLTFVFGANVEKLICEPYTSKELFRVLDTPYLLNEDWEYYLSGKLFNKSKMKLTFEQVYSDCKKNRGTYGTLHLQNSFNISEHLNINEHTGSISSELESLKVNLNIFLLGAAGRKNLQDFAACGIDRMNYDSYLAQTGKSPAGVNLLSFAYDLEAKANSLPPGNLRNSLKRDAQTIKTIHQQRVLPIEQSLSTLYQSVKILQRTGNGLLERVTRILASLDFAQNFITNNTSSVIIEETKKYGRTIIGYFEHYLQWIEFSISEKVASCKPVATALDTAVDVFLCSYIIDPLNLFWFGIGKATVFLLPALIFAVKLAKYYRRMDSEDVYDDVETIPMKNMENGNNGYHKDHVYGIHNPVMTSPSQH
Regarding B7, in the data set on D75 PRP product, the “% co-expression with RCVRN” value stood at 9.7% and the “% (antigen+/recoverin−)” value was found to be 1.8%.
